Assay results published in patent publication US6780978B2, “Fluorescence-activating antisera and IgG fraction therefrom” (Hamamatsu Photonics, K.K., priority 1998, dated 2004).

Test system: IgG fraction derived from Guinea-pig 1
Assay: Fluorescence of Malachite Green dilutions mixed with the IgG fraction
Format: binding
Description: A series of dilutions of Malachite Green in PBS solutions are prepared by adding to the solutions, the IgG fraction according to the invention which has been derived from Guinea-pig 1 in certain amounts (with the final concentration being 0.2 μM), and by adjusting concentrations of the dye within the range of 0-12 nM.
Fluorescence of these dilutions is measured with a Hitachi Model 850 fluorescence spectrophotometer under the following conditions: in a quartz cell of optical path length of 1.0 cm at the excitation side; an excitation wavelength of 617 nm; an emission wavelength of 650 nm; a band-pass width of 5 nm at both excitation and emission sides; High gain of a photomultiplier; a time constant of 1.5 sec; and a fluorescence integration time of 30 sec. Thus, a concentration-fluorescence intensity curve is prepared (See FIG. 5).
The fluorescence intensity is expressed as output values (i.e., arbitrary, relative units) of the fluorescence spectrophotometer.

For CN(C)c1ccc(C(=C2C=CC(=[N+](C)C)C=C2)c2ccccc2)cc1 [Malachite Green], the “sensitivity relative to the absorbance measurement” value (40 nM/0.12 nM) was “about 300 times”, the “concentration range of linear correlation between fluorescence intensities and concentrations” value (with IgG fraction 0.2 μM) was 0.12 to 12 nM and the “lowest concentration detected by fluorescence measurement using the antibody” value (with IgG fraction 0.2 μM) was 0.12 nM.
